Results: publication PMC5085626, “Characterization of a β-Adrenergic-Like Octopamine Receptor in the Oriental Fruit Fly, Bactrocera dorsalis (Hendel)” (International Journal of Molecular Sciences, 2016)
Counter-ions that a name gives are not always drawn.

The chains behind the UniProt entries cited, without tags or fusion partners.
UniProt A0ABM3J3U4, entry or part of it: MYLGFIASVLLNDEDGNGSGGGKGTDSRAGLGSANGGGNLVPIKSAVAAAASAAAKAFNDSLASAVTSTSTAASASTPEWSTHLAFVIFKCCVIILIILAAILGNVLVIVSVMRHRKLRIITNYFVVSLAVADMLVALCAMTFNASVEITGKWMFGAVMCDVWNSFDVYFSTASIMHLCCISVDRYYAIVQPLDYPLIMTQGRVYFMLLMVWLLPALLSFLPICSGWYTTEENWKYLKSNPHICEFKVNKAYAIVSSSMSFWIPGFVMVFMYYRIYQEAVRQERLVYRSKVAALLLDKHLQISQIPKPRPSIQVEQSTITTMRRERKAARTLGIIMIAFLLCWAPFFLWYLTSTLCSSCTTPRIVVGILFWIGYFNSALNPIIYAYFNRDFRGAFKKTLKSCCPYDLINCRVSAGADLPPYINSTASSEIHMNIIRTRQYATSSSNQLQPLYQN

Biological target: BdOctβR1 (Bactrocera dorsalis, UniProt A0ABM3J3U4)
Experiment: cell-based

With `CN1CCN2c3ccccc3Cc3ccccc3C2C1` (stereo not shown) [mianserin, mianserin hydrochloride] the IC50 was 484 nM.
